Residue numbers refer to the chain shown, from its start. No constants are given. Whether binding was seen depends on the method and setting. In cells and extracts the contact can be indirect. Binding can be weak; no strength is given. Sequences can lack the tags named with a protein.

The chains behind the UniProt entries cited, without tags or fusion partners. Where a name states a change or a piece, a line headed by the entry shows the natural chain unless it says otherwise.
UniProt Q6P4F1: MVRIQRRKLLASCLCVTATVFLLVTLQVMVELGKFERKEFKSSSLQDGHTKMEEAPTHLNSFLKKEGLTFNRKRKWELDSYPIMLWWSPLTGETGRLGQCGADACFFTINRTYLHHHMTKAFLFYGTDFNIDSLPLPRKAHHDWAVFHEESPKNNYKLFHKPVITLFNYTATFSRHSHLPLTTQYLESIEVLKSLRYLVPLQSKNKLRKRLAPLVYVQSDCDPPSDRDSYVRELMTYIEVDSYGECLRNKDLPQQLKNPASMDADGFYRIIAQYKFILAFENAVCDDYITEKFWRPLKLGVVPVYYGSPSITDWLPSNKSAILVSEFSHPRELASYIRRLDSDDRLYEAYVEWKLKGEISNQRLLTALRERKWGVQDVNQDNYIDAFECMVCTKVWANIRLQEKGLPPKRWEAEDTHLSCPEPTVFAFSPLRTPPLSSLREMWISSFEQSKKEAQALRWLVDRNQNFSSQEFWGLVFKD
UniProt Q495W5: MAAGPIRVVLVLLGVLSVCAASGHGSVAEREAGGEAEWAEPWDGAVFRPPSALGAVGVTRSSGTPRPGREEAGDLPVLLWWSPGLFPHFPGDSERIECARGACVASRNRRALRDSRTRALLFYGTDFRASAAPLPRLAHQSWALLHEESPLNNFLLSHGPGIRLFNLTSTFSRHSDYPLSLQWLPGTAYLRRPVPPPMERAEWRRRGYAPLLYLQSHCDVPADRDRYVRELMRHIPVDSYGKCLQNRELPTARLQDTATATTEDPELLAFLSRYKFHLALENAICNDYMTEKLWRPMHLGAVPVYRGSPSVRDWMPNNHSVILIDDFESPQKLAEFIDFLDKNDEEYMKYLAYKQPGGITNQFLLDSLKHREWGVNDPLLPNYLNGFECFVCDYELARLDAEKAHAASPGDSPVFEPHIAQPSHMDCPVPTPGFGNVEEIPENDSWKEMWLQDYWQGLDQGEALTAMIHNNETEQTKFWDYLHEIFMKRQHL

Assay [1] addresses T1, human MMRN1 N-terminal EMI-Myc-His6 T216A mutant (human) (UniProt Q13201).
T1 sequence: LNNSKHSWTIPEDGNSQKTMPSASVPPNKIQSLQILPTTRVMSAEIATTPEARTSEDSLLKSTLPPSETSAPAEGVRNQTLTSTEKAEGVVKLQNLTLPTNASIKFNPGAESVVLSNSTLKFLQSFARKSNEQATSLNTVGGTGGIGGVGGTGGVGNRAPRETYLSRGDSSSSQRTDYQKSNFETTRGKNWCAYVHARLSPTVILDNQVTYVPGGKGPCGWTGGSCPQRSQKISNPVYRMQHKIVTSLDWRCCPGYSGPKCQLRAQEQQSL
The assay can be described thus: co-IP; HEK293 cells co-transfected with EMI-Myc and FUT plasmids, 24 h; lysis in 1% Igepal CA-630, 50 mM Tris-HCl pH 7.4, 150 mM NaCl, 5% glycerol, 1 mM MgCl2; anti-c-Myc (9E10) magnetic beads, 4 °C, 2 h; eluted proteins digested and quantified by LC-MS/MS (label-free quantification, MaxQuant), n = 3.

Assay [2] has as its target T2, human MMRN1 N-terminal EMI-Myc-His6 (first 290 amino acids of Multimerin-1, wild type) (human) (UniProt Q13201).
T2 sequence: T1 sequence with A197T
The assay is described as above.

In the case of “GFP–FUT10 (human FUT10 lacking the transmembrane domain, from pGEn2-GFP-hFUT10) (from UniProt Q6P4F1) (enzyme)”, the binding result in assay [1] and in assay [2] was “binds” throughout.

For the substance “GFP–FUT11 (human FUT11 lacking the transmembrane domain, from pGEn2-GFP-hFUT11) (from UniProt Q495W5) (enzyme)”, the binding result in assay [1] and in assay [2] was “binds” each time.

(Values after publication PMC11949838, “FUT10 and FUT11 are protein O-fucosyltransferases that modify protein EMI domains” (Nature Chemical Biology, 2025).)
